Results of single-concentration screens

The values are deposited in ChEMBL (CHEMBL3988442, “University of Dundee, Small-Polar-MMV Screening Library” (2021)).

The filed quantity is “Percent Effect” (%). The record does not define 0% and 100%; most values in the screen are far below 50% and negative numbers occur (in some assays of this library far below -100). Compounds were drawn at random from those tested, without regard to their results.

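Whole-parasite assay of Trypanosoma brucei over 72 hours; the read-out is not stated. Concentration: 30 µM. Direction is inferred from retests: higher values go with stronger inhibition. Values scatter widely below zero; nearly all retest evidence comes from the higher of the two concentrations used. About 64,000 compounds were tested under these conditions; 1.5% (about 940) showed 50% or more at least once.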

| structure | Percent Effect |
|---|---|
| `CN(C)Cc1nc(C(C)(C)NC(=O)c2ccc3ccccc3c2)no1` | -19.88% |
| `Cc1nc(C)n(CC2CCCN(CC(=O)Nc3c(C)n[nH]c3C)C2)n1` (centres unmarked) | 2.572% |
| `Cc1nc(C)n(CC2CCCN(Cc3ccc(C(N)=O)cc3)C2)n1` (centres unmarked) | 18.31% |
| `CCn1cnnc1CNC(=O)N1CCC(CN2CCOCC2)CC1` | 1.886% |
| `CN(C)[C@@H]1CCN(S(=O)(=O)C2CC2)[C@H]1Cc1ccccc1.O=C(O)C(F)(F)F` | -33.03% |
| `Cc1cc2c(c(-c3c[nH]c(C)n3)c1)OC(CN)C2` (centres unmarked) | 47.44% |
| `CNC(=O)[C@@H]1C[C@@H](N)CN1C(=O)CCSCc1ccccc1` | -3.803% |
| `Cc1cc(N2C[C@H](C3CC3)[C@@H](N)C2)nc(N2CCCCC2)n1` | -8.75% |
| `CN1CC(=O)N(c2cccc(F)c2)CC12CCN(Cc1cncn1C)C2.O=C(O)C(F)(F)F.O=C(O)C(F)(F)F` (centres unmarked) | -32.29% |
| `CCNC(=O)C1CCN(c2cc(-c3ccccc3F)nc3ccnn23)C1` (centres unmarked) | 4.629% |
| `CCc1noc(C(C)N2CCN(C)CC2)n1` (centres unmarked) | -6.939% |
| `O=c1cc(-c2cccnc2)nc(-c2ccc(CN3CC[C@H](O)C3)cc2)[nH]1` | -3.539% |
| `COc1ccccc1-c1ncc(CN2C[C@@H](N(C)C)[C@H](C(C)C)C2)s1` | 89.3% |
| `CCc1nc(C)cc(NC(C)C(=O)Nc2cc(F)ccc2C)n1` (centres unmarked) | 3.494% |
| `O=C(O)C(F)(F)F.c1ccc(OCc2nnn3c2CN(c2ncccn2)CCC3)nc1` | -48.89% |
| `[H][C@@]12CS(=O)(=O)C[C@]1([H])N(C(=O)c1cc(C)on1)CCN2C(=O)CC(C)C` | -12.51% |
| `O=C(O)C(F)(F)F.O=C(O)C(F)(F)F.[H][C@@]12C[C@H](C(=O)NC(C)C)CN(Cc3ccc4ccccc4n3)[C@]1([H])CCO2` | -394% |
| `CCN(C)c1ncnc2c1CCN(C(=O)c1ccsc1)CC2.O=C(O)C(F)(F)F` | -20.34% |
| `COC(=O)C(C)(C)C(C)(C)NC(=O)Nc1nnc(-c2ccccn2)s1` | -1.951% |
| `Cc1nc(NCCc2ccc(Cl)cc2)cc(C(=O)N2CCCCC2)n1` | -45.68% |
| `Cc1ccc(C(=O)N2CCN(c3ccnc4ccsc34)CC2)o1` | 99.86% |
| `Cc1cnc(N2CCC3(CC2)CN(c2ccsc2)C(=O)CO3)nc1.O=C(O)C(F)(F)F` | -32.18% |
| `Cn1cc(-c2nc(CNCCn3cccn3)cs2)cn1` | -22.63% |
| `Cc1cc(C(=O)NS(=O)(=O)Cc2ccon2)c(C)o1` | -54.58% |
| `[H][C@]12CCN(C(=O)c3cnccn3)[C@@]1([H])CC[C@H](COCC)O2` | -40.65% |
| `O=C(N1CCCC1)N1CCC[C@]2(C[C@@H](Oc3ncccc3F)CO2)C1.O=C(O)C(F)(F)F` | -9.158% |
| `CNC(=O)C1CN(c2cc(C)ncn2)CCN1Cc1ccccc1` (centres unmarked) | -10.76% |
| `Cc1cc2c(=O)n(CCSc3cnn[nH]3)cnc2s1` | -1.517% |
| `Cc1cccc(N(CCC(N)=O)CC(=O)Nc2cc(Cl)ccc2Cl)c1` | -24.79% |
| `CCC(=O)N1CCN(C(=O)NC2CCc3ccccc3C2)CC1` (centres unmarked) | -8.119% |
| `COCCN(C)C[C@@H]1CN(C(=O)c2ccc(SC)cc2)C[C@@H]1CO` | -14.17% |
| `CCOCCNC(=O)CCC1CCCO1` (centres unmarked) | -14.01% |
| `CC(NC(=O)C1CC1)c1cc(O)nc(-c2cccnc2)n1` (centres unmarked) | -6.097% |
| `Cc1ccc(-c2c(-c3ccccc3)ncn2CCCN2CCOCC2)o1` | 31.62% |
| `CN1CCN(Cc2cccc(C#N)c2)Cc2cccnc21.O=C(O)C(F)(F)F.O=C(O)C(F)(F)F` | 32.69% |
| `CC(C)Nc1ncccc1C(=O)NCc1ccnn1C` | -14.26% |
| `COCC1Cn2nnc(-c3cnn(C)c3)c2CN1Cc1ccco1.O=C(O)C(F)(F)F` (centres unmarked) | 30.4% |
| `Cc1ccc(NC2CCN(C(=O)Cc3ccc(C)s3)CC2)nn1` | 8.401% |
| `CN(C)C(=O)c1cccc(CNc2ccc(C#N)cn2)c1` | 2.962% |
| `Cc1nc(C)n(CC2CCCN(CCOc3cccc(C#N)c3)C2)n1` (centres unmarked) | -88.56% |
| `Cc1ccc(NCCCc2c(C)noc2C)nn1` | 6.756% |
| `CCN(C)CC(=O)N1CCC(c2cc(N3CCOCC3)nc(C)n2)CC1` | -5.787% |
| `CCc1noc(CS(=O)(=O)Cc2ccccc2C)n1` | -44.71% |
| `O=c1cc2c(nn1CN1CCC(c3ccccc3)CC1)CCC2` | -33.72% |
| `Cc1ccc(N2CCCC(N(C)Cc3nnc(C4CC4)o3)C2)nn1` (centres unmarked) | -18.53% |
| `CNC(=O)c1cc2c(nc1NCC1CC1)CCN(S(C)(=O)=O)CC2.O=C(O)C(F)(F)F` | -3.721% |
| `CCCS(=O)(=O)N1CCC2(CC1)CN(CC1CCOC1)c1ccccc12.O=C(O)C(F)(F)F` (centres unmarked) | -11.45% |
| `O=C(CCNC(=O)c1ccoc1)Nc1ccccc1F` | 22.37% |
| `CN(Cc1cccc(OC(F)(F)F)c1)C(=O)Cc1ccon1` | -24.73% |
| `Cc1cc(C)n(NC(=O)c2ccc(Cl)cc2Cl)c(=O)c1` | -7.89% |
| `Cc1ccc(-n2nnc(C(=O)Nc3cc(C)nn3C)c2C2CC2)cc1` | -32.74% |
| `Cn1cc(N2CCN(c3ccc(C#N)cc3Br)CC2=O)cn1` | -46.85% |
| `CS(=O)(=O)Cc1nc(CNc2c(F)cc(F)cc2F)cs1` | -37.51% |
| `Cc1nc2c(c(=O)n1C)CCN(C(=O)CCc1ccccn1)CC2` | -5.272% |
| `[H][C@]12CC[C@]([H])(CC(=O)N(C)C1)N2C(=O)c1ccc(C)[nH]c1=O` | -2.578% |
| `CSc1ncn(-c2nc(NC3CC3)nc(N(C)C)n2)n1` | -4.116% |
| `CCOCCOC(C)C(=O)NCc1cn2cc(Cl)ccc2n1` (centres unmarked) | 4.291% |
| `CCc1nc(N2CCCC(CCOC)(C(=O)O)C2)ncc1C` (centres unmarked) | 0.7833% |
| `Cc1cccc2c1OCCCC2NCc1nccn1Cc1ccccc1` (centres unmarked) | 14.33% |
| `COc1cccnc1NC(=O)COc1c(C)cccc1C` | -26.48% |
| `CC(C)(C)c1csc(CCNC(=O)[C@H](c2ccccc2)n2cnnn2)n1` | 5.871% |
| `Cc1cccc(N2CCC3(CCCN(C(=O)c4cccnc4)C3)C2)n1.O=C(O)C(F)(F)F.O=C(O)C(F)(F)F` (centres unmarked) | -25.71% |
| `Cl.FC(F)(F)c1nc(C2CCNCC2)no1` | -10.72% |
| `CC(=O)N1CCC(CCc2ccnc(NC(=O)c3ccccn3)c2)CC1` | 56.75% |
| `O=C(O)C(F)(F)F.O=C(O)C(F)(F)F.c1csc(CN2CCC3(CC2)CCN(CC2CC2)CC3)n1` | -32.3% |
| `CC(=O)c1c[nH]c(C(=O)N2CCN(C(C(N)=O)c3ccccc3)CC2)c1` (centres unmarked) | -24.3% |
| `CCc1c(C)n(C)c2nc3ccccc3n2c1=O` | -22.87% |
| `CN(CC(=O)N1CCN(c2ncccn2)CC1)c1ccc(Cl)cn1` | 23.65% |
| `[H][C@]12CN(Cc3nc(C)cs3)C[C@@]1([H])OCCN(S(C)(=O)=O)C2` | -19.41% |
| `CC(C)[C@@H]1CN(C(=O)C2(c3ccccc3)CCN(C)CC2)C[C@H]1C(=O)O` | -10.92% |
| `c1nc2onc(C3CC3)c2cc1-c1nnc(C2CC2)o1` | -61.84% |
| `CC(CNC(=O)NCc1ccco1)CC1(C)OCCO1` (centres unmarked) | -83.32% |
| `CN(C)CCN(Cc1ccccn1)C(=O)Nc1cccc(F)c1` | -10.64% |
| `CCc1ncc(-c2nccn2-c2cccc(CC(=O)O)c2)cn1` | -23.95% |
| `CN(CCc1ccccc1)C(=O)CN1C(=O)OC[C@@H]1c1ccccc1` | 11.24% |
| `c1ccc2c(c1)CCN(c1nc(N3CCOCC3)c3nn[nH]c3n1)C2` | -17% |
| `CSCCCn1ccnc1-c1cccc(C#N)c1` | -12.98% |
| `Cc1cnn(C2CCCN(C(=O)c3cccc(-n4cnnn4)c3)C2)c1` (centres unmarked) | -2.117% |
| `COc1cc(F)c(S(=O)(=O)N2CCN(C)Cc3ccccc32)cc1OC` | 0.1163% |

Some entries from above, unchanged:

| structure | Percent Effect |
|---|---|
| `CCc1noc(CS(=O)(=O)Cc2ccccc2C)n1` | -44.71% |
| `Cc1ccc(NCCCc2c(C)noc2C)nn1` | 6.756% |
| `CCN(C)c1ncnc2c1CCN(C(=O)c1ccsc1)CC2.O=C(O)C(F)(F)F` | -20.34% |
| `O=C(O)C(F)(F)F.c1ccc(OCc2nnn3c2CN(c2ncccn2)CCC3)nc1` | -48.89% |
| `CC(NC(=O)C1CC1)c1cc(O)nc(-c2cccnc2)n1` (centres unmarked) | -6.097% |
| `Cc1cc(N2C[C@H](C3CC3)[C@@H](N)C2)nc(N2CCCCC2)n1` | -8.75% |
| `Cc1nc2c(c(=O)n1C)CCN(C(=O)CCc1ccccn1)CC2` | -5.272% |